Taken from: PubChem BioAssay AID1259308 (NCATS, 2017)
Aim: 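Candidate targets for better recombinant protein yield in mammalian cells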 (primary screen). Cell system: human HEK293 embryonic kidney cells stably expressing firefly luciferase (HEK-CMV-Luc2-Hygro). Knock-down reagent: single siRNA against human genes, 0.8 pmol siRNA per well. Duration: 72 h. Measured: 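Reporter luminescence and viable-cell signal on separate replicate plates, given as percent of non-targeting control and median/MAD z-scores, plus per-cell luciferase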. Direction: total luciferase, z-score: higher = more reporter protein produced. Hit rule: 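An siRNA counts as active if its total luciferase robust z-score exceeds 3; genes with two or more such siRNAs out of three were retested with fresh siRNAs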. Calls: active = raised luciferase; inactive = no rise.
Shown is an unselected part of about 59,000 deposited reagents. Of all reagents, about 1,510 (2.6%) are marked active. 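Calls use total luciferase alone and ignore viability, so some active siRNAs may act by altering cell number.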 Entries without a mark were called inactive. Further read-outs or replicates are left out here.

total luciferase, z-score, by target gene and reagent
CIB1 (GeneID 10519): SID160728628 -0.437; SID160728629 1.33; SID160728630 0.186
AMY2B (GeneID 280): SID160717425 1.35; SID160717435 0.661; SID160723651 -1.12
GBP2 (GeneID 2634): SID160769729 0.0323; SID160769739 0.492; SID160769750 -1.28
KLRA1P (GeneID 10748): SID160729147 -0.701; SID160729148 -1.34; SID160729149 0.776
PLEKHG5 (GeneID 57449): SID160745981 -0.217; SID160745982 1.71; SID160745983 1.43
PRODH2 (GeneID 58510): SID160746886 3.43 (active); SID160746887 0.0398; SID160746888 -1.03
PROSER2 (GeneID 254427): SID160732808 -1.29; SID160762196 1.19; SID160762198 0.165
NLRC4 (GeneID 58484): SID160746817 0.324; SID160746818 -0.499; SID160746820 0.971
NKX2-8 (GeneID 26257): SID160737843 -0.183; SID160737844 0.248; SID160737845 -0.912
RABGAP1 (GeneID 23637): SID160736732 -0.205; SID160736733 -0.327; SID160736734 -0.749
ADCY1 (GeneID 107): SID160713955 -0.783; SID160713966 -0.903; SID160713976 1.35
PLCB4 (GeneID 5332): SID160714443 0.428; SID160714444 -0.0729; SID160714445 -0.451
HLA-DRA (GeneID 3122): SID160775010 -0.112; SID160775011 0.0618; SID160775012 1.12
ISG20L2 (GeneID 81875): SID160751049 -0.729; SID160751050 -0.275; SID160751051 -1.3
EEF1DP6 (GeneID 644357): SID160725728 -0.755; SID160725729 0.211; SID160769189 -0.184
NUFIP2 (GeneID 57532): SID160746199 0.837; SID160746200 2.32; SID160746201 -0.889
ADAMTS18 (GeneID 170692): SID160760460 -0.899; SID160760461 -0.198; SID160760462 0.281
RASSF8 (GeneID 11228): SID160730235 2.47; SID160730236 -0.524; SID160730237 -1.09
MGST1 (GeneID 4257): SID160777228 1.55; SID160777229 0.328; SID160777230 1.17

Reformatted: 4 of the entries above.
{"Target gene": "ADCY1 (GeneID 107)", "PubChem SID": "SID160713976", "total luciferase, z-score": 1.35}
{"Target gene": "PLCB4 (GeneID 5332)", "PubChem SID": "SID160714443", "total luciferase, z-score": 0.428}
{"Target gene": "PLCB4 (GeneID 5332)", "PubChem SID": "SID160714444", "total luciferase, z-score": -0.0729}
{"Target gene": "PLCB4 (GeneID 5332)", "PubChem SID": "SID160714445", "total luciferase, z-score": -0.451}
